Data published in article PMC3795256.
These are yes or no findings as the source states them, for the method shown. Binding seen in cells or lysates may run through a third protein. Here binding means that the protein was enriched with, or labelled near, the bait; the list need not be complete. For part of these data: Tags and fused reporters may be left off the sequences shown.

Tests used:
[1] = target: FLAG-tagged Prx4 (peroxiredoxin 4) (human) (UniProt Q13162); experiment: affinity purification with mass spectrometry; FLAG-tagged Prx4 expressed in HEK293 cells, immunoprecipitated with anti-FLAG, eluted with FLAG peptides, digested with Lys-C, direct nano-flow LC-MS/MS
[2] = target: T1, FLAG-tagged Prx4 (peroxiredoxin 4) (human), Q13162; experiment: as above; conditions: remark: other sources report otherwise
T1 chain: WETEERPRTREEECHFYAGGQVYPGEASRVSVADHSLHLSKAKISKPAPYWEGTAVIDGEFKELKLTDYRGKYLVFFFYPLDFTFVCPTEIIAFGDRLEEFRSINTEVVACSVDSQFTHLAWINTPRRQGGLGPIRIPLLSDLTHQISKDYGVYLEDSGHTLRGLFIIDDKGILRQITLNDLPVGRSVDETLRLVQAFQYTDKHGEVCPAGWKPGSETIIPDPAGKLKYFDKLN

Row | Binder | binding [1] | binding [2]
1 | ERp44 (protein, UniProt Q9BS26 30-406) EITSLDTENIDEILNNADVALVNFYADWCRFSQMLHPIFEEASDVIKEEFPNENQVVFARVDCDQHSDIAQRYRISKYPTLKLFRNGMMMKREYRGQRSVKALADYIRQQKSDPIQEIRDLAEITTLDRSKRNIIGYFEQKDSDNYRVFERVANILHDDCAFLSAFGDVSKPERYSGDNIIYKPPGHSAPDMVYLGAMTNFDVTYNWIQDKCVPLVREITFENGEELTEEGLPFLILFHMKEDTESLEIFQNEVARQLISEKGTINFLHADCDKFRHPLLHIQKTPADCPVIAIDSFRHMYVFGDFKDVLIPGKLKQFVFDLHSGKLHREFHHGPDPTDTAPGEQAQDVASSPPESSFQKLAPSEYRYTLLRDRDEL | binds | –
2 | ERp72, P13667 21-645 (protein) VAGAEGPDEDSSNRENAIEDEEEEEEEDDDEEEDDLEVKEENGVLVLNDANFDNFVADKDTVLLEFYAPWCGHCKQFAPEYEKIANILKDKDPPIPVAKIDATSASVLASRFDVSGYPTIKILKKGQAVDYEGSRTQEEIVAKVREVSQPDWTPPPEVTLVLTKENFDEVVNDADIILVEFYAPWCGHCKKLAPEYEKAAKELSKRSPPIPLAKVDATAETDLAKRFDVSGYPTLKIFRKGRPYDYNGPREKYGIVDYMIEQSGPPSKEILTLKQVQEFLKDGDDVIIIGVFKGESDPAYQQYQDAANNLREDYKFHHTFSTEIAKFLKVSQGQLVVMQPEKFQSKYEPRSHMMDVQGSTQDSAIKDFVLKYALPLVGHRKVSNDAKRYTRRPLVVVYYSVDFSFDYRAATQFWRSKVLEVAKDFPEYTFAIADEEDYAGEVKDLGLSESGEDVNAAILDESGKKFAMEPEEFDSDTLREFVTAFKKGKLKPVIKSQPVPKNNKGPVKVVVGKTFDSIVMDPKKDVLIEFYAPWCGHCKQLEPVYNSLAKKYKGQKGLVIAKMDATANDVPSDRYKVEGFPTIYFAPSGDKKNPVKFEGGDRDLEHLSKFIEEHATKLSRTKEEL | – | binds
3 | P5 (protein, UniProt Q15084 20-440) LYSSSDDVIELTPSNFNREVIQSDSLWLVEFYAPWCGHCQRLTPEWKKAATALKDVVKVGAVDADKHHSLGGQYGVQGFPTIKIFGSNKNRPEDYQGGRTGEAIVDAALSALRQLVKDRLGGRSGGYSSGKQGRSDSSSKKDVIELTDDSFDKNVLDSEDVWMVEFYAPWCGHCKNLEPEWAAAASEVKEQTKGKVKLAAVDATVNQVLASRYGIRGFPTIKIFQKGESPVDYDGGRTRSDIVSRALDLFSDNAPPPELLEIINEDIAKRTCEEHQLCVVAVLPHILDTGAAGRNSYLEVLLKLADKYKKKMWGWLWTEAGAQSELETALGIGGFGYPAMAAINARKMKFALLKGSFSEQGINEFLRELSFGRGSTAPVGGGAFPTIVEREPWDGRDGELPVEDDIDLSDVELDDLGKDEL | binds | –
